Values from PubChem BioAssay AID1159584 (Peter MacCallum Cancer Centre, 2016)
Here is an unselected part of about 18,000 reagents tested. Not all columns of the deposit are shown. Not stated in the record: the amount of reagent, the time to read-out.

Assay: 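Knock-downs that harm CDH1-null cells more than parental MCF10A cells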 (primary screen)
Cell system: human MCF10A breast epithelial cells, parental and CDH1-null
Knock-down reagent: siRNA against human genes
Detection: 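Cell viability by CellTiter-Glo ATP luminescence, each line scaled to the mean of mock wells across plates, then CDH1-null over parental ratio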
Direction: CDH1-null / parental viability ratio: higher = CDH1-null cells survive relatively better than parental; CDH1-null viability vs mock: higher = more viable CDH1-null cells

| gene | CDH1-null / parental viability ratio | CDH1-null viability vs mock (fraction of mock) |
| --- | --- | --- |
| UBN1 | 1.43 | 0.6 |
| PGM2L1 | 0.88 | 0.52 |
| HIBADH | 0.96 | 0.81 |
| RPS3 | 1.28 | 0.37 |
| USP39 | 1.2 | 0.36 |
| ANXA7 | 1.25 | 0.84 |
| SCGB2A2 | 0.8 | 0.92 |
| SLC18A2 | 1.08 | 1.04 |
| RIC3 | 1.15 | 0.7 |
| CSRP1 | 1.14 | 1.43 |
| SND1-IT1 | 1 | 0.74 |
| GRIN1 | 1.33 | 0.8 |
| HSPA12B | 1.11 | 0.72 |
| C5AR2 | 1.19 | 0.8 |
| MAN2B1 | 0.94 | 0.6 |
| CDADC1 | 0.81 | 0.68 |
| GRAMD2B | 1.18 | 0.84 |
| RADIL | 1.26 | 0.88 |
| MYO1C | 0.78 | 0.58 |
| PCDHA1 | 0.96 | 0.53 |
| NOS2 | 0.93 | 0.93 |
| FAAP100 | 0.99 | 1.09 |
| CRIP2 | 0.99 | 0.87 |
| GCSH | 0.91 | 0.75 |
| DNA2 | 0.83 | 0.58 |
| ZNF285 | 0.97 | 0.64 |
| APOM | 0.45 | 0.34 |
| TEX10 | 0.88 | 0.61 |
